PMC10753549 (ACS Omega, 2023)
Structures can show the parent of a compound that is named as a salt.

Test system: brine shrimp (Artemia salina)
Experiment: Brine shrimp lethality bioassay
Conditions: brine shrimp nauplii, 24 h, probit analysis of 6-point dose (16–500 μg/mL)

SMILES: CN1[C@@H]2CC[C@H]1C[C@@H](OC(=O)C(CO)c1ccccc1)C2 (stereo partly shown) [Atropine SO4, Atropine sulfate monohydrate]
- LD50 (median lethal dose): 737.8 µg/mL
